Experimental data: PubChem BioAssay AID686937 (Drosophila RNAi Screening Center, 2013)
The deposit covers about 23,000 reagents; this is a random part of those that have a named target and a result. 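Reduced-secretion tags in replicate 1 do not always agree with the z-scores; no criterion for assigning the tags was given.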 Reagents against one gene are numbered here. Names joined by + are all predicted targets of the reagent. Not all columns of the deposit are shown. Not stated in the record: the amount of reagent.

Aim: 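Genes in the fly needed for secretion of protein constitutively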 (primary screen)
Cells: Drosophila S2 cells expressing secreted horseradish peroxidase
Knock-down reagent: long dsRNA against Drosophila genes
Time to read-out: about 5.5 days (5 days dsRNA, then 12 h reporter induction)
Treatment: reporter expression induced after 5 days of dsRNA, read 12 h later; inducer not stated
Detection: 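Chemiluminescent measurement of peroxidase in the medium 12 h after reporter induction, following 5 days of dsRNA, given as a z-score per plate; higher means more secretion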
Direction: z-score: higher = more reporter secreted into medium

Against Ir11a, the entry reads z-score, replicate 1 = 0.57.
CG11168 scored z-score, replicate 1 = 0.23.
CG7910 gave z-score, replicate 1 = 0.32.
For gsb, the entry reads z-score, replicate 1 = 0.23.
For CG43102 #1 the deposit lists z-score, replicate 1 = 0.42.
Silencing of CG43102 #2 resulted in: z-score, replicate 1 = 0.51.
After knock-down of CG43102 #3, the screen gave z-score, replicate 1 = 0.57.
Against ng4, the values are z-score, replicate 1 = 0.16.
CCT3 showed z-score, replicate 1 = -0.05.
Knock-down of Tsp42Eg gave: z-score, replicate 1 = 0.24.
Against CG12691 the deposit lists z-score, replicate 1 = 0.29.
Knock-down of Wdr81 came out at: z-score, replicate 1 = 0.66.
For Orct, the values are z-score, replicate 1 = 0.32.
For beat-IV #1, the entry reads z-score, replicate 1 = 0.14.
Silencing of beat-IV #2 resulted in: z-score, replicate 1 = 0.27.
After knock-down of Ugt303A1, the screen gave z-score, replicate 1 = 0.43.
For ATPsynCF6 the deposit lists z-score, replicate 1 = -0.08.
Silencing of Ir52c resulted in: z-score, replicate 1 = 1.26.
For RnrS the deposit lists z-score, replicate 1 = -1.9.
Silencing of Sodq gave: z-score, replicate 1 = 0.19.
CG12818 gave z-score, replicate 1 = 0.07.
For RhoGAPp190 #1, the values are z-score, replicate 1 = 0.72.
Against RhoGAPp190 #2 the deposit lists z-score, replicate 1 = 0.2.
Neurochondrin scored z-score, replicate 1 = 0.22.
Or59b scored z-score, replicate 1 = 0.43.
bif #1 gave z-score, replicate 1 = -0.35.
Silencing of bif #2 gave: z-score, replicate 1 = 0.21.
With knock-down of Cyp318a1, the screen gave z-score, replicate 1 = 0.31.
Against Obp18a, the values are z-score, replicate 1 = 0.2.
Against CG17724 the deposit lists z-score, replicate 1 = 0.5.
Against Ugalt, the values are z-score, replicate 1 = 0.26.
Knock-down of CG31465 resulted in: z-score, replicate 1 = 0.23.
For CG5885, the entry reads z-score, replicate 1 = 0.31.
With knock-down of CG10137 #1 the results were z-score, replicate 1 = -0.23.
After knock-down of CG10137 #2, the record shows z-score, replicate 1 = 0.04.
Silencing of Orp8 #1 came out at: z-score, replicate 1 = 0.4.
With knock-down of Orp8 #2, the record shows z-score, replicate 1 = 0.4.
After knock-down of CG4511 the results were z-score, replicate 1 = 0.08.
For CG11367 the deposit lists z-score, replicate 1 = -0.69.
Depletion of VAChT + ChAT resulted in: z-score, replicate 1 = 0.47.
